Measured values taken from article PMC11056319, “Targeting PRMT9-mediated arginine methylation suppresses cancer stem cell maintenance and elicits cGAS-mediated anticancer immunity” (Nature Cancer, 2024).
Numbering of substitutions follows the chain as printed. These are yes or no findings as the source states them, for the method shown. In cells and extracts the contact can be indirect. Some entries that bind do so weakly or less than the wild type. Sequences can lack the tags named with a protein.

Columns and labels:
[1] = target: T1, FLAG-tagged XRN2-R946K, full-length, gRNA-resistant (UniProt Q9H0D6); experiment: co-IP; 293T cells transfected with the tagged proteins; lysates in 50 mM Tris pH 7.4, 150 mM NaCl, 1 mM EDTA with protease inhibitors; anti-FLAG beads overnight (FLAG pull-down); immunoblot
T1 sequence: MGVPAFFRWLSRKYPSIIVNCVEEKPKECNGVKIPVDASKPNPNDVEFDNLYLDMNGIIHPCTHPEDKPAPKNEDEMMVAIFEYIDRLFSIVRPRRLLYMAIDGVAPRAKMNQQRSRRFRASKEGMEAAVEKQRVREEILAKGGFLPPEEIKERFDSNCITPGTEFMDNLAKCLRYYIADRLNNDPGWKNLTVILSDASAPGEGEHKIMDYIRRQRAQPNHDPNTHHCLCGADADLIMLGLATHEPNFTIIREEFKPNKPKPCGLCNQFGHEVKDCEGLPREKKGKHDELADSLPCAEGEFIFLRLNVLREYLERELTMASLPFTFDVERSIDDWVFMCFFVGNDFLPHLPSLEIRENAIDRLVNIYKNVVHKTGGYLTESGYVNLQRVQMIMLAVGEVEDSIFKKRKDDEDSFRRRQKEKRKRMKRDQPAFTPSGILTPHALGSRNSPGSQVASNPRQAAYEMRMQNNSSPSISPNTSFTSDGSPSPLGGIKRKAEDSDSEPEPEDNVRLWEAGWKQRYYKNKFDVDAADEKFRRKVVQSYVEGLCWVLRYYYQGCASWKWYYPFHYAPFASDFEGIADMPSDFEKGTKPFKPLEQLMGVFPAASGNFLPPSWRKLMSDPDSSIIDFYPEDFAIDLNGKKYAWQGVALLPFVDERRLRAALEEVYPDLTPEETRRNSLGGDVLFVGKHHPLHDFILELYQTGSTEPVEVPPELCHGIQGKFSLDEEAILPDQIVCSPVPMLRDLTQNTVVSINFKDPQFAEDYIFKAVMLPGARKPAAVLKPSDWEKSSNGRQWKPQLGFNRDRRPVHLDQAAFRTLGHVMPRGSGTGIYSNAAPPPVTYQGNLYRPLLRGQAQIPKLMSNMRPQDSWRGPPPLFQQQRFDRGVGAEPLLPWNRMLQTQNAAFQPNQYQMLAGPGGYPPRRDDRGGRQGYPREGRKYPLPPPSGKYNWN

[2] = target: T2, FLAG-tagged XRN2 WT, full-length, gRNA-resistant (UniProt Q9H0D6); experiment: as above
T2 sequence: T1 sequence with K946R

[3] = target: T1, FLAG-tagged XRN2-R946K, full-length, gRNA-resistant; experiment: co-IP; XRN2-engineered THP1 cells (FLAG-XRN2 WT or R946K, endogenous XRN2 knocked out); IP with anti-FLAG beads; interactors detected by immunoblot
[4] = target: T2, FLAG-tagged XRN2 WT, full-length, gRNA-resistant; experiment: as above

Measured: binding

B1: p54nrb (protein, UniProt Q15233 1-471)
chain: MQSNKTFNLEKQNHTPRKHHQHHHQQQHHQQQQQQPPPPPIPANGQQASSQNEGLTIDLKNFRKPGEKTFTQRSRLFVGNLPPDITEEEMRKLFEKYGKAGEVFIHKDKGFGFIRLETRTLAEIAKVELDNMPLRGKQLRVRFACHSASLTVRNLPQYVSNELLEEAFSVFGQVERAVVIVDDRGRPSGKGIVEFSGKPAARKALDRCSEGSFLLTTFPRPVTVEPMDQLDDEEGLPEKLVIKNQQFHKEREQPPRFAQPGSFEYEYAMRWKALIEMEKQQQDQVDRNIKEAREKLEMEMEAARHEHQVMLMRQDLMRRQEELRRMEELHNQEVQKRKQLELRQEEERRRREEEMRRQQEEMMRRQQEGFKGTFPDAREQEIRMGQMAMGGAMGINNRGAMPPAPVPAGTPAPPGPATMMPDGTLGLTPPTTERFGQAATMEGIGAIGGTPPAFNRAAPGAEFAPNKRRRY
binds: all assays above
